This is one part of the list. Shown are side measurements of this screen, not its main read-out; they come without a call. The list favours compounds with an active or inconclusive main result. Words in brackets tell the shape of the fitted curve; partial curves, single points and poor fits give uncertain potencies.
Assay: qHTS Assay for Lipid Storage Modulators in Drosophila S3 Cells;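 as to cell number change: cells counted by Cell Tracker Red CMTPX staining in the red channel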
Settings: BODIPY lipid droplet fluorescence, 18-24 h; for cell number change: measured here: cell count max response, cells fed with added oleic acid
How it was run: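 Drosophila S3 cells got compounds at several concentrations plus oleic acid (400 uM solution). Laser-scanning cytometry with 488 nm excitation read lipid droplets at 500-530 nm and cells at 575-640 nm. Percent activity was relative to 20 uM Triacsin C.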

[1] = measured here: cell number channel AC50, cells fed with added oleic acid
[2] = measured here: lipid fluorescence (Fed channel) AC50, cells fed with added oleic acid

SMILES | cell number change [%] | AC50 [1] | AC50 [2]
Cc1ccnc(NC(=S)NC(=O)c2cncc(Br)c2)c1 | -24.3 |  | 
CCOc1ccc(S(=O)(=O)NC(C)C(=O)NCc2ccncc2)cc1 (stereo unspecified) | -1.32 | 4.61 µM [rising, partial curve, poor fit] | 35.5 µM [falling, single point]
CCOc1ccc(C2=CS/C(=C(\C#N)c3nnc4n3CCCCC4)N2CC)cc1 |  | 2.31 µM [rising, partial curve] | 2.31 µM [rising, partial curve]
COc1ccc(OC)c(NC(=O)CC(Cc2ccccc2OC)C(=O)O)c1 (stereo unspecified) | -11.6 | 2.59 µM [rising, single point] | 
CCn1ccc(=N)cc1 | -64.3 | 29.1 µM [falling, single point] | 0.164 µM [falling, full curve]
CCOC(=O)c1cnn(-c2nc3c(C)cccc3s2)c1C | 24.5 |  | 2.59 µM [falling, partial curve]
Nc1cc(OC(=O)c2cccs2)nn1S(=O)(=O)c1ccccc1 | -64.2 | 18.4 µM [falling, single point] | 8.2 µM [falling, partial curve]
O=C(Cc1ccc(F)cc1)N/N=C/c1ccc(-c2ccc(Cl)c(C(=O)O)c2)o1 | 31.2 | 0.461 µM [falling, full curve] | 
CN(C)S(=O)(=O)c1ccc(C(=O)Nc2cccc(C(=O)O)c2)cc1 | 0.0997 |  | 0.411 µM [rising, single point]
CCCCOc1ccc(C(=O)NCC(=O)OCC(=O)N2CCN(S(=O)(=O)c3ccc(C)cc3C)CC2)cc1 | -42.9 | 0.0116 µM [falling, full curve, poor fit] | 
CCOC(=O)c1sc(NC(=O)/C=C/c2ccc(F)cc2)nc1C | -46 | 23.1 µM [falling, single point] | 
COc1cccc(/C(=N/O)C2CC2c2ccc(Cl)cc2)c1 (stereo unspecified) | -6.39 |  | 6.51 µM [rising, partial curve]
CCN(CC(=O)Nc1cc(Cl)ccc1C)C(=O)c1ccc2c(c1)NC(=O)C(C)S2 (stereo unspecified) | -10.1 |  | 
CCc1ccc(C(=O)NNc2ccc(F)cc2F)cc1 | 14.7 |  | 11.6 µM [rising, partial curve, poor fit]
CCOC(=O)c1sc2cccc(Cl)c2c1N | -33.4 | 11.6 µM [falling, partial curve] | 
O=S(=O)(NC1CCCCC1N1CCN(c2ccc(F)cc2)CC1)c1ccccc1 (stereo unspecified) | 25.7 |  | 29.1 µM [rising, partial curve, poor fit]
O=C(CN(Cc1cccs1)C(=O)CCC(=O)Nc1nccs1)NCc1ccccc1 | 71.4 | 29.1 µM [rising, single point] | 29.1 µM [rising, single point]
Cc1ccc(CNC(=O)Nc2ccc(Cl)cc2)cc1 | 22.6 |  | 
CCCCC1(C)Nc2ccccc2-c2nc3ccccc3n21 (stereo unspecified) | -36.6 | 29.1 µM [falling, single point] | 

Three entries from above, ordered by number of heavy atoms, low to high:
SMILES | cell number change [%] | AC50 [1] | AC50 [2]
CCc1ccc(C(=O)NNc2ccc(F)cc2F)cc1 | 14.7 |  | 11.6 µM [rising, partial curve, poor fit]
COc1ccc(OC)c(NC(=O)CC(Cc2ccccc2OC)C(=O)O)c1 (stereo unspecified) | -11.6 | 2.59 µM [rising, single point] | 
O=C(CN(Cc1cccs1)C(=O)CCC(=O)Nc1nccs1)NCc1ccccc1 | 71.4 | 29.1 µM [rising, single point] | 29.1 µM [rising, single point]

(list continues)

SMILES | cell number change [%] | AC50 [1] | AC50 [2]
CCn1c(SCC(=O)O)nnc1C1CCCCC1 | -17.1 |  | 0.82 µM [falling, partial curve]
Cc1ccc(NS(=O)(=O)c2ccc(N/N=C/c3ccncc3)c([N+](=O)[O-])c2)c(C)c1 | 6.6 | 0.651 µM [rising, partial curve] | 1.46 µM [rising, partial curve]
COC(=O)C(C)Sc1nc2c(cnn2-c2ccccc2)c(=O)[nH]1 (stereo unspecified) |  |  | 1.03 µM [rising, single point]
COc1cccc(C(=S)N2CCOCC2)c1OS(=O)(=O)c1ccc(Cl)cc1 | -52.3 | 2.31 µM [falling, full curve] | 23.1 µM [falling, partial curve, poor fit]
COc1ccc(-n2c(-c3ccc(Cl)cc3)c[n+]3c2CCCCC3)cc1 | -30.4 | 29.1 µM [falling, single point] | 29.1 µM [falling, single point]
COc1ccc(C)cc1NC(=O)C1CCCN(S(=O)(=O)c2cccs2)C1 (stereo unspecified) | -1.59 |  | 
CCC(C)(C)C1CCc2[nH]nc(C(=O)NCc3ccc(Cl)cc3)c2C1 (stereo unspecified) | -72.9 | 20.6 µM [falling, single point] | 29.1 µM [falling, single point]
Cc1ccc(C(=O)NC(=S)N2CCN(C(=O)OC(C)(C)C)CC2)cc1Br | -16.6 | 0.13 µM [falling, full curve, poor fit] | 0.291 µM [falling, single point]
O=C(COC(=O)C1CC2C=CC1C2)NCc1ccco1 (stereo unspecified) | -12.6 |  | 
Cc1cccc(C(=O)OCC(=O)NCc2cccs2)c1 | 55.1 | 29.1 µM [rising, single point] | 
O=C(OCc1ccccc1)C1=NNC2C(=O)N(Cc3ccccc3)C(=O)C12 (stereo unspecified) | 58.3 | 18.4 µM [rising, single point] | 
COC(=O)CN(C)C(=O)c1ccccc1OC1CCN(S(C)(=O)=O)CC1 | -1.37 |  | 14.6 µM [rising, partial curve]
CN(CC(=O)Nc1cccc(F)c1)C(=O)CNC(=O)Cc1cccc2ccccc12 |  | 0.00461 µM [rising, full curve, poor fit] | 29.1 µM [falling, single point]
CN(C)S(=O)(=O)c1ccc(Cl)c(NC(=O)CSc2nc3c(cc2C#N)C(=O)CCC3)c1 | -1.99 |  | 
COC(=O)c1ccc(CNC(=O)c2ccc(S(=O)(=O)N3CCCC(C)C3)cc2)cc1 (stereo unspecified) | -1.48 |  | 3.26 µM [falling, single point]
CO/N=C/c1c(-c2ccc(Cl)cc2)nc2cc(C)ccn12 |  |  | 0.731 µM [rising, full curve, poor fit]
Cc1cc(-c2ccccc2)nc(N(C)NC(=O)C(C)(C)C)c1S(C)(=O)=O | 45.9 | 29.1 µM [rising, single point] | 
Cc1cccc(C(=O)Nc2ccc(O)cc2C(=O)O)c1 | 31.1 | 31.6 µM [rising, single point] | 31.6 µM [rising, single point]
